In PubChem BioAssay (EPA / NIEHS):
The inconclusive results got no clear call from the source; some entries with a clear call stand among them for comparison. For some of these results: Potencies of inconclusive entries are doubtful fits and often do not repeat. Calls of active or inactive are those of the source. How the source made its calls: active means hit-call score of the fitted dose curve at least 0.9, where 1 is the maximum; inconclusive means response in the unintended direction; inactive means score below 0.9.

The chains behind the UniProt entries cited, without tags or fusion partners. Where a name states a change or a piece, a line headed by the entry shows the natural chain unless it says otherwise.
UniProt P20813: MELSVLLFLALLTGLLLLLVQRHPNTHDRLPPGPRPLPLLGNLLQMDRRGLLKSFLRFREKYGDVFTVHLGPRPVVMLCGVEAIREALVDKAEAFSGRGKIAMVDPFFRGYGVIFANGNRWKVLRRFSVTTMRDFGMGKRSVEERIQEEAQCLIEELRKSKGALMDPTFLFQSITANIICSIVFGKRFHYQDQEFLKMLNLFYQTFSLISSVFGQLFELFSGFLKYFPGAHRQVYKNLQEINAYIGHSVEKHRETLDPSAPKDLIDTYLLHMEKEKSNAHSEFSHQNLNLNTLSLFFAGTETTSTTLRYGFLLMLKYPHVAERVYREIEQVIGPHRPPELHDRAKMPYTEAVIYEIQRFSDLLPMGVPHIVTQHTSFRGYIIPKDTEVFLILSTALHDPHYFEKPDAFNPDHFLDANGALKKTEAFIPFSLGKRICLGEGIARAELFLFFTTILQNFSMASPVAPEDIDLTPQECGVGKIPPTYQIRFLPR
UniProt P33261, whole entry, looked up: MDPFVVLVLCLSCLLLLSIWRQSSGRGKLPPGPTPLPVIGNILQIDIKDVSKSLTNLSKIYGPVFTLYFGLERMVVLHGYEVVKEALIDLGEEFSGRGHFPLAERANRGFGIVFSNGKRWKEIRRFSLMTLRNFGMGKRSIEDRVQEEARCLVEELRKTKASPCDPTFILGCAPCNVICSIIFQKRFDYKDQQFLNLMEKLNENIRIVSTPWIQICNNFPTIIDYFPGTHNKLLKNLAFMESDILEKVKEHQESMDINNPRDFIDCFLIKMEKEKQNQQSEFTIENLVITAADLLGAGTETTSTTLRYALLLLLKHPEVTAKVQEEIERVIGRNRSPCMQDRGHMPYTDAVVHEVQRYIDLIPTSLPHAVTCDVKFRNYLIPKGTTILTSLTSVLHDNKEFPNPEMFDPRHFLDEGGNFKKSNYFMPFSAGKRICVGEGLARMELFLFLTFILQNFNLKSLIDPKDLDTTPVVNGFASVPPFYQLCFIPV
UniProt Q9UNQ0: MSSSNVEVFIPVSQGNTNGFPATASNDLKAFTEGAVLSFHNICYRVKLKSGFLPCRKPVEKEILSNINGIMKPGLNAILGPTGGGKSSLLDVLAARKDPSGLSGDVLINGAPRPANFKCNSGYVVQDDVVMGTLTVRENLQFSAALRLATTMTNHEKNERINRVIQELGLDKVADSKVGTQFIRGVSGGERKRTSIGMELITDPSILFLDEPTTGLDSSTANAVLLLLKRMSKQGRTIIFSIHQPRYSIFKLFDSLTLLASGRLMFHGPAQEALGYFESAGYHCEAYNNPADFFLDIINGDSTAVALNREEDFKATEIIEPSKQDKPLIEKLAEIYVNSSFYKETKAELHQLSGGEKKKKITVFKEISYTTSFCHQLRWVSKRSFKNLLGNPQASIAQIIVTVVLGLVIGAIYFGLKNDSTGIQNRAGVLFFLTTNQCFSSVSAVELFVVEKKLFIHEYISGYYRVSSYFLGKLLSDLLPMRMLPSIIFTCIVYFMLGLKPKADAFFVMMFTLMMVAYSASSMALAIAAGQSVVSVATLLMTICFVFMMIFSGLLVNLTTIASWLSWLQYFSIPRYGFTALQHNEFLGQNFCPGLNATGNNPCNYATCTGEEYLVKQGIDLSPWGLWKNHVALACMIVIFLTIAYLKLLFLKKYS
UniProt P28827, whole entry, looked up: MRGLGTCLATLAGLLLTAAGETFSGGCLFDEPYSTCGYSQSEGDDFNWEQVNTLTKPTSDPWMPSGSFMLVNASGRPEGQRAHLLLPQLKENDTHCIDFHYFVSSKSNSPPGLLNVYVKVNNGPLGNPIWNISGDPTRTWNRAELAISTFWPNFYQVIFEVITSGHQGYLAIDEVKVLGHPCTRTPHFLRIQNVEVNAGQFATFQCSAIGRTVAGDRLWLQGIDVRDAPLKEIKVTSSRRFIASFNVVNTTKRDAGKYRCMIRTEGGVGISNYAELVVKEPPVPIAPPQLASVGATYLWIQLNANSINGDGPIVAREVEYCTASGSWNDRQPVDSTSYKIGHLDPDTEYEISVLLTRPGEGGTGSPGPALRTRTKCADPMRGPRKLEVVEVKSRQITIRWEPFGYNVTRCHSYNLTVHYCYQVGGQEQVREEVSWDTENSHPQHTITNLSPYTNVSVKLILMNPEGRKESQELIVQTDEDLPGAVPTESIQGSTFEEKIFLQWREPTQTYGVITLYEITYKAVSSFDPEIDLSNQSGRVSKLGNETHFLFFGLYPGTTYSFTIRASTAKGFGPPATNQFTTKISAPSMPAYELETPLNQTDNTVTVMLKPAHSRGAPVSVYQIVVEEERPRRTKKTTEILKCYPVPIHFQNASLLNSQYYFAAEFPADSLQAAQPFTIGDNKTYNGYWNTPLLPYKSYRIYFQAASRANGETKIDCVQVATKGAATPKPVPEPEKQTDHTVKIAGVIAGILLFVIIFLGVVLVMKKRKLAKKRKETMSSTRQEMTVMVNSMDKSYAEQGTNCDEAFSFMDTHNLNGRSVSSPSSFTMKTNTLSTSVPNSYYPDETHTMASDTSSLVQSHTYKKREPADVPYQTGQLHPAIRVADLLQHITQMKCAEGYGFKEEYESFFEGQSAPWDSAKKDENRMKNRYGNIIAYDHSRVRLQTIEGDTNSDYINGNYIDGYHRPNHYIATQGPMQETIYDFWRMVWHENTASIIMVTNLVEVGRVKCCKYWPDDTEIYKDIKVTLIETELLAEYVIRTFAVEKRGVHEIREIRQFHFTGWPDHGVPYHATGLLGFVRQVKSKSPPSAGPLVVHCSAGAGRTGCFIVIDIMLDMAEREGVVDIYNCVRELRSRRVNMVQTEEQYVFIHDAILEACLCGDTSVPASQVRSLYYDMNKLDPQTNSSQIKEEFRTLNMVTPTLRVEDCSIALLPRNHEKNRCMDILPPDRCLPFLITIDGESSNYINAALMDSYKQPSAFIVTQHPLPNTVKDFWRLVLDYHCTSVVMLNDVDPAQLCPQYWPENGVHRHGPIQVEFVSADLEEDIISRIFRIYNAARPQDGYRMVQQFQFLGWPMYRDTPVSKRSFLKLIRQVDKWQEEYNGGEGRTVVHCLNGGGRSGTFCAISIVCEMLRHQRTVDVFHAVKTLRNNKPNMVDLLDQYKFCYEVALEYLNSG

Experiments:
[1] = read-out: Cytochrome P450 2B6 (Homo sapiens) (UniProt P20813); experiment: CLD_CYP2B6_48hr: CellzDirect (CLD) Gene Expression Assay for xenobiotic metabolism (CYP2B6) at 48 hours (AID 2283699);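 further: actives raise transcript level above DMSO so potency reflects induction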
How it was run: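 CYP2B6 transcript induction, read by quantitative nuclease protection (S1 digestion, chemiluminescent detection) 48 h after dosing, is fitted upward against 0.2% DMSO. Cultured human liver primary cells, two donor preparations, received fresh chemical daily over multiple concentrations.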

[2] = read-out: Cytochrome P450 2C19 (Homo sapiens) (UniProt P33261); experiment: CLD_CYP2C19_48hr: CellzDirect (CLD) Gene Expression Assay for xenobiotic metabolism (CYP2C19) at 48 hours (AID 2283700)
How it was run: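 CYP2C19 mRNA induction read by chemiluminescent quantitative nuclease protection assay after 48 h, with fresh compound added daily for two days to cultured human liver hepatocytes. Activity fitted upward against 0.2% DMSO vehicle.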

[3] = CLD_ACTIN_48hr: CellzDirect (CLD) Gene Expression Assay for Baseline Control (Actin) at 48 hours (AID 2283702)
How it was run: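 Background-control actin mRNA read by qNPA chemiluminescence at 48 h. Human hepatocyte cultures from two donors received fresh multi-concentration chemical doses daily for two days; 0.2% DMSO served as vehicle baseline.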

[4] = read-out: xenobiotic metabolism (CYP1A2), CYP1A2 (gene 1544); experiment: CLD_CYP1A2_48hr: CellzDirect (CLD) Gene Expression Assay for xenobiotic metabolism (CYP1A2) at 48 hours (AID 2283703)
How it was run: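 Cytotoxicity was flagged yes/no from morphology, while CYP1A2 transcript induction was detected by qNPA chemiluminescence after a 48-hour exposure. Human primary hepatocyte cultures from separate donors received fresh dosing solutions daily over two days, with 0.2% DMSO as vehicle and baseline.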

[5] = read-out: Broad substrate specificity ATP-binding cassette transporter ABCG2 (Homo sapiens) (UniProt Q9UNQ0); experiment: CLD_ABCG2_48hr: CellzDirect (CLD) Gene Expression Assay for ABC Transporter (ABCG2) at 48 hours (AID 2283704);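 further: potency for induction of ABCG2 mRNA above the DMSO baseline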
How it was run: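 ABCG2 transcript measured at 48 h by quantitative nuclease protection (chemiluminescent) and fitted for increase relative to 0.2% DMSO. Hepatocyte cultures from separate donors got fresh compound daily over two days; morphology annotated cytotoxicity.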

[6] = read-out: organic anion transporter (SLCO1B1), SLCO1B1 (gene 10599); experiment: CLD_SLCO1B1_48hr: CellzDirect (CLD) Gene Expression Assay for organic anion transporter (SLCO1B1) at 48 hours (AID 2283707)
How it was run: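 SLCO1B1 transcript quantified by qNPA with chemiluminescent readout after 48 h of once-daily chemical exposure. Cultured human primary hepatocytes came from two donors, with 0.2% DMSO vehicle; positive-direction fitting against DMSO, cytotoxicity flagged by morphology.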

[7] = read-out: alkyl and aryl transferase (GSTA2), GSTA2 (gene 2939); experiment: CLD_GSTA2_48hr: CellzDirect (CLD) Gene Expression Assay for alkyl and aryl transferase (GSTA2) at 48 hours (AID 2283708);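 further: active means mRNA induction above DMSO vehicle baseline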
How it was run: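 GSTA2 mRNA quantified by qNPA chemiluminescence in human primary hepatocyte lysates after 48 h of daily fresh chemical dosing. Increases fitted against 0.2% DMSO vehicle baseline; cytotoxicity from morphology annotated yes/no.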

[8] = read-out: glucuronosyltransferase (UGT1A1), UGT1A1 (gene 54658); experiment: CLD_UGT1A1_48hr: CellzDirect (CLD) Gene Expression Assay for glucuronosyltransferase (UGT1A1) at 48 hours (AID 2283709);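 further: actives increase expression relative to DMSO so potency refers to induction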
How it was run: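 Quantitative nuclease protection assay (chemiluminescent) for UGT1A1 mRNA at 48 h in human hepatocyte cultures from two donors, redosed daily with fresh solutions. Induction fitted relative to 0.2% DMSO; phase-contrast morphology annotated cytotoxicity.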

[9] = read-out: sulfotransferase (SULT2A), SULT2A1 (gene 6822); experiment: CLD_SULT2A_48hr: CellzDirect (CLD) Gene Expression Assay for sulfotransferase (SULT2A) at 48 hours (AID 2283710);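 further: hits raise SULT2A1 transcript above the 0.2% DMSO vehicle baseline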
How it was run: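 SULT2A1 transcript measured by qNPA chemiluminescence in human primary hepatocyte cultures after 48 h, with fresh dosing solutions on two consecutive days; gain-of-signal fitting against 0.2% DMSO vehicle; cytotoxicity annotated from phase-contrast morphology.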

[10] = read-out: HMG-CoA synthase (HMGCS2), HMGCS2 (gene 3158); experiment: CLD_HMGCS2_48hr: CellzDirect (CLD) Gene Expression Assay for HMG-CoA synthase (HMGCS2) at 48 hours (AID 2283711)
How it was run: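 mRNA induction read by qNPA chemiluminescence, 48 h after dosing. Cultured primary human liver cells (two donor preparations) received fresh compound daily over two days against 0.2% DMSO vehicle; morphology-based cytotoxicity noted alongside.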

[11] = ArunA_NOG_NeuritesPerNeuron: ArunA Biomedical's Neurite Outgrowth (NOG) Assay for Neurites Per Neuron (AID 2283758)
How it was run: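 Differentiated human H9-derived neurons exposed to chemicals for 48 h from seeding, then stained with Hoechst and βIII-tubulin/DyLight 488. Automated imaging counted neurites (processes >10 um) per valid neuron; loss of signal versus DMSO scored.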

[12] = ArunA_NOG_BranchPointsPerNeurite: ArunA Biomedical's Neurite Outgrowth (NOG) Assay for Branch Points Per Neurite (AID 2283759)
How it was run: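 Automated image analysis traced neurites (processes >10 um) from valid cell bodies after Hoechst and βIII-tubulin staining. hNN cells from H9 embryonic stem cells, 48 h exposure. Fitted bidirectionally against DMSO.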

[13] = VALA_TUBHUV_Antagonist_CellCount: Viability Assessment in the VALA Sciences human Umbilical Vein Endothelial Tubule Formation (TUBHUV) Antagonism Assay (AID 2284310)
How it was run: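 Read-out is imaged cell count after nuclear and CD31 staining, fitted against 0.1% DMSO vehicle. Compounds were added for 3 days, in 10 ng/ml VEGF assay medium, to HUVEC–HDF co-cultures pre-grown 3 days.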

[14] = VALA_MIGHUV2_CellCount: Viability Assessment in the VALA Sciences human Umbilical Vein Endothelial Cell Migration (MIGHUV) Assay, Area of Scratch Wound after Recovery (AID 2284314)
How it was run: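 Viability read-out: Hoechst-stained nuclei counted by fluorescence imaging after a 24 h recovery period in fixed, scratched HUVEC plates. Compound was dosed within 30 min of scratching at six concentrations (triplicate); DMSO at 0.1 % served as baseline.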

[15] = VALA_MIGHUV2_WoundArea: VALA Sciences human Umbilical Vein Endothelial Cell Migration (MIGHUV) Assay, Area of Scratch Wound after Recovery (AID 2284316)
How it was run: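 Wound-area endpoint read by fluorescence imaging of Hoechst-stained nuclei after a 24 h recovery period following scratch of HUVEC monolayers (9000 cells/well). Chemicals dosed within 30 min post-scratch, triplicate 6-point series, 0.1% DMSO vehicle; Cytochalasin D positive control.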

[16] = VALA_MIGHUV1_ScratchOnly_CellCount: Viability Assessment in the VALA Sciences human Umbilical Vein Endothelial Cell Migration (MIGHUV) Assay, Scratch Wound Inhibited Recovery (AID 2284327)
How it was run: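 Hoechst-stained nuclei in the scratch wound were counted by high-content imaging after a 24 h recovery period. Scratched HUVEC monolayers received 6-point concentration series, triplicate, in 0.1% DMSO, fit against DMSO.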

[17] = VALA_TUBIPS_Antagonist_CellCount: Viability Assessment in the VALA Sciences human iPS-derived Endothelial Tubule Formation (TUBIPS) Antagonism Assay (AID 2284335)
[18] = VALA_MIGHUV1_ScratchOnly_WoundArea: VALA Sciences human Umbilical Vein Endothelial Cell Migration (MIGHUV) Assay, Area of Scratch Wound Inhibited Recovery (AID 2284336)
How it was run: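 Wound area remaining after 24 h recovery imaged by Hoechst nuclear fluorescence in scratched HUVEC cultures, chemicals added within 30 min of scratching across a 6-point series. Gain of signal fitted against 0.1% DMSO; cytochalasin D positive control.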

[19] = VALA_TUBHUV_Agonist_TubuleLength: VALA Sciences human Umbilical Vein Endothelial Tubule Formation (TUBHUV) Agonism Assay (AID 2284337)
How it was run: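 Tubule length quantified by CD31 immunofluorescence imaging after fixation. HUVEC-HDF co-cultures (1:3) pre-grown 3 days with 10 ng/ml VEGF, then dosed 3 days in VEGF medium; 0.1 % DMSO vehicle baseline.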

[20] = biological target: human Protein Tyrosine Phosphatase Receptor Type M (PTPRM), PTPRM (gene 5797) (UniProt P28827); experiment: NVS_ENZ_hPTPRM: NovaScreen (NVS) Enzymatic Assay for human Protein Tyrosine Phosphatase Receptor Type M (PTPRM) (AID 2283215)
How it was run: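 Read-out is fluorescence after electrophoretic separation of substrate and product, taken 1.33 h post-dosing with recombinant enzyme. Compounds screened at 25 uM in duplicate, then concentration series for actives; activity as signal loss relative to DMSO.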

Measured: AC50

S=C(S)NCCNC(=S)S.[Mn+2].[S-]C([S-])=NCCN=C([S-])[S-].[Zn+2]
active: [5] 3.67 µM
inconclusive: [2] 3.51 µM | [3] 5.09 µM | [4] 2.89 µM | [6] 2.76 µM | [7] 1.9 µM | [8] 2.95 µM | [9] 2.44 µM | [10] 2.14 µM | [12] 50 µM | [13] 0.00129 µM | [14] 0.00129 µM | [17] 1.29 nM | [19] 50 µM
inactive: [1] | [11] | [15] | [16] | [18]

O=C(O)c1cc(N=Nc2ccc(S(=O)(=O)Nc3ccccn3)cc2)ccc1O
inactive: [20]

S=C([S-])NCCNC(=S)[S-].[Mn+2]
inconclusive: [1] 3.36 µM | [2] 4.41 µM | [4] 3.84 µM | [6] 3.71 µM | [7] 20 µM | [8] 2.81 µM | [9] 3.53 µM | [10] 20 µM
inactive: [3]
active: [20] 8.13 µM | [5] 3.4 µM

Two neighbouring records from above, quoted:
O=C(O)c1cc(N=Nc2ccc(S(=O)(=O)Nc3ccccn3)cc2)ccc1O
inactive: [20]

S=C([S-])NCCNC(=S)[S-].[Mn+2]
inconclusive: [1] 3.36 µM | [2] 4.41 µM | [4] 3.84 µM | [6] 3.71 µM | [7] 20 µM | [8] 2.81 µM | [9] 3.53 µM | [10] 20 µM
inactive: [3]
active: [20] 8.13 µM | [5] 3.4 µM

Later entries.

O=C(CCCN1CCC(O)(c2ccc(Cl)cc2)CC1)c1ccc(F)cc1
inconclusive: [13] 50 µM | [14] 50 µM | [16] 1.31 nM
inactive: [15] | [17] | [18] | [19]
active: [11] 77.9 µM | [12] 73.3 µM
